According to patent US20100041694A1, “AGRICULTURAL COMPOSITION FOR CONTROLLING OR PREVENTING PLANT DISEASES CAUSED BY PLANT PATHOGENIC MICROBES” (Sumitomo Chemical Company, Limited, priority 2007, published 2010):
Some results were stated once for a whole list of compounds, not compound by compound.

What was measured:
Format in all cases: in vivo
Gibberella fujikuroi = assay: Rice bakanae disease, seed treatment; details: contaminated unhulled rice, seed treatment 200 g compound per 100 kg seeds, 1 month
Sclerotinia sclerotiorum = assay: Preventing infection by cucumber Sclerotinia rot, foliage application; details: cucumber (Sagami-Hanjiro), flowable formulation 500 ppm foliage application, then inoculation; 18° C. high humidity 4 days
[1] = test system: Verticillium albo-atrum, V. dahliae, V. nigrescens; assay: Potato blue stem, soil irrigation treatment; details: potato (Danshaku) in contaminated soil, 10 mg compound per pot by soil irrigation, 2 months
Fusarium oxysporum = assay: Preventing infection by tomato wilt by soil treatment (irrigation); details: tomato (Patio) in contaminated soil, 10 mg compound per pot by soil irrigation, 1 month
Gaeumannomyces graminis = assay: Malt damping off, seed treatment; details: contaminated malt seeds, seed treatment 200 g compound per 100 kg seeds, 1 month

O=C(NCc1ccc(F)cc1F)c1ccc2ncccc2c1 [Compound 59]
growth of treated plants (Gibberella fujikuroi): favorably grow at a level equivalent to that of plants that have grown from noncontaminated unhulled rice
infected areas of treated plants relative to infected areas of untreated plants (Sclerotinia sclerotiorum): ≤ 10%
blotches in treated plants [1]: no blotches are found
growth of treated plants [1]: favorably grow at a level equivalent to that of plants that grow in noncontaminated soil
blotches in treated plants (Fusarium oxysporum): no blotches are found
growth of treated plants (Fusarium oxysporum): favorably grow at a level equivalent to that of plants that grow have in noncontaminated soil
growth of treated plants (Gaeumannomyces graminis): favorably grow at a level equivalent to that of plants that grow from noncontaminated seeds

COCc1cccc(CNC(=O)c2ccc3ncccc3c2)c1 [Compound 63]
growth of treated plants (Gibberella fujikuroi): favorably grow at a level equivalent to that of plants that have grown from noncontaminated unhulled rice
infected areas of treated plants relative to infected areas of untreated plants (Sclerotinia sclerotiorum): ≤ 10%
blotches in treated plants [1]: no blotches are found
growth of treated plants [1]: favorably grow at a level equivalent to that of plants that grow in noncontaminated soil
blotches in treated plants (Fusarium oxysporum): no blotches are found
growth of treated plants (Fusarium oxysporum): favorably grow at a level equivalent to that of plants that grow have in noncontaminated soil
growth of treated plants (Gaeumannomyces graminis): favorably grow at a level equivalent to that of plants that grow from noncontaminated seeds

O=C(NCc1cnc(OCc2ccccc2)s1)c1ccc2ncccc2c1 [Compound 66]
growth of treated plants (Gibberella fujikuroi): favorably grow at a level equivalent to that of plants that have grown from noncontaminated unhulled rice
infected areas of treated plants relative to infected areas of untreated plants (Sclerotinia sclerotiorum): ≤ 10%
blotches in treated plants [1]: no blotches are found
growth of treated plants [1]: favorably grow at a level equivalent to that of plants that grow in noncontaminated soil
blotches in treated plants (Fusarium oxysporum): no blotches are found
growth of treated plants (Fusarium oxysporum): favorably grow at a level equivalent to that of plants that grow have in noncontaminated soil
growth of treated plants (Gaeumannomyces graminis): favorably grow at a level equivalent to that of plants that grow from noncontaminated seeds

O=C(NCc1ccc(OCc2c(F)cc(F)cc2F)cc1)c1ccc2ncccc2c1 [Compound 67]
growth of treated plants (Gibberella fujikuroi): favorably grow at a level equivalent to that of plants that have grown from noncontaminated unhulled rice
infected areas of treated plants relative to infected areas of untreated plants (Sclerotinia sclerotiorum): ≤ 10%
blotches in treated plants [1]: no blotches are found
growth of treated plants [1]: favorably grow at a level equivalent to that of plants that grow in noncontaminated soil
blotches in treated plants (Fusarium oxysporum): no blotches are found
growth of treated plants (Fusarium oxysporum): favorably grow at a level equivalent to that of plants that grow have in noncontaminated soil
growth of treated plants (Gaeumannomyces graminis): favorably grow at a level equivalent to that of plants that grow from noncontaminated seeds

O=C(NCc1cccc(OCc2ccccc2)c1F)c1ccc2ncccc2c1 [Compound 68]
growth of treated plants (Gibberella fujikuroi): favorably grow at a level equivalent to that of plants that have grown from noncontaminated unhulled rice
infected areas of treated plants relative to infected areas of untreated plants (Sclerotinia sclerotiorum): ≤ 10%
blotches in treated plants [1]: no blotches are found
growth of treated plants [1]: favorably grow at a level equivalent to that of plants that grow in noncontaminated soil
blotches in treated plants (Fusarium oxysporum): no blotches are found
growth of treated plants (Fusarium oxysporum): favorably grow at a level equivalent to that of plants that grow have in noncontaminated soil
growth of treated plants (Gaeumannomyces graminis): favorably grow at a level equivalent to that of plants that grow from noncontaminated seeds

O=C(NCc1ccc(OCc2ccc(F)cc2F)cc1)c1ccc2ncccc2c1 [Compound 69]
growth of treated plants (Gibberella fujikuroi): favorably grow at a level equivalent to that of plants that have grown from noncontaminated unhulled rice
infected areas of treated plants relative to infected areas of untreated plants (Sclerotinia sclerotiorum): ≤ 10%
blotches in treated plants [1]: no blotches are found
growth of treated plants [1]: favorably grow at a level equivalent to that of plants that grow in noncontaminated soil
blotches in treated plants (Fusarium oxysporum): no blotches are found
growth of treated plants (Fusarium oxysporum): favorably grow at a level equivalent to that of plants that grow have in noncontaminated soil
growth of treated plants (Gaeumannomyces graminis): favorably grow at a level equivalent to that of plants that grow from noncontaminated seeds

CCOCc1cccc(CNC(=O)c2ccc3ncccc3c2)c1 [Compound 71]
growth of treated plants (Gibberella fujikuroi): favorably grow at a level equivalent to that of plants that have grown from noncontaminated unhulled rice
infected areas of treated plants relative to infected areas of untreated plants (Sclerotinia sclerotiorum): ≤ 10%
blotches in treated plants [1]: no blotches are found
growth of treated plants [1]: favorably grow at a level equivalent to that of plants that grow in noncontaminated soil
blotches in treated plants (Fusarium oxysporum): no blotches are found
growth of treated plants (Fusarium oxysporum): favorably grow at a level equivalent to that of plants that grow have in noncontaminated soil
growth of treated plants (Gaeumannomyces graminis): favorably grow at a level equivalent to that of plants that grow from noncontaminated seeds

O=C(NCc1ccc(COc2ccccc2)cc1)c1ccc2ncccc2c1 [Compound 72]
growth of treated plants (Gibberella fujikuroi): favorably grow at a level equivalent to that of plants that have grown from noncontaminated unhulled rice
infected areas of treated plants relative to infected areas of untreated plants (Sclerotinia sclerotiorum): ≤ 10%
blotches in treated plants [1]: no blotches are found
growth of treated plants [1]: favorably grow at a level equivalent to that of plants that grow in noncontaminated soil
blotches in treated plants (Fusarium oxysporum): no blotches are found
growth of treated plants (Fusarium oxysporum): favorably grow at a level equivalent to that of plants that grow have in noncontaminated soil
growth of treated plants (Gaeumannomyces graminis): favorably grow at a level equivalent to that of plants that grow from noncontaminated seeds

CC(C)c1ccc(CNC(=O)c2ccc3ncccc3c2)cc1 [Compound 73]
growth of treated plants (Gibberella fujikuroi): favorably grow at a level equivalent to that of plants that have grown from noncontaminated unhulled rice
infected areas of treated plants relative to infected areas of untreated plants (Sclerotinia sclerotiorum): ≤ 10%
blotches in treated plants [1]: no blotches are found
growth of treated plants [1]: favorably grow at a level equivalent to that of plants that grow in noncontaminated soil
blotches in treated plants (Fusarium oxysporum): no blotches are found
growth of treated plants (Fusarium oxysporum): favorably grow at a level equivalent to that of plants that grow have in noncontaminated soil
growth of treated plants (Gaeumannomyces graminis): favorably grow at a level equivalent to that of plants that grow from noncontaminated seeds

CSc1ccc(CNC(=O)c2ccc3ncccc3c2)cc1 [Compound 75]
growth of treated plants (Gibberella fujikuroi): favorably grow at a level equivalent to that of plants that have grown from noncontaminated unhulled rice
infected areas of treated plants relative to infected areas of untreated plants (Sclerotinia sclerotiorum): ≤ 10%
blotches in treated plants [1]: no blotches are found
growth of treated plants [1]: favorably grow at a level equivalent to that of plants that grow in noncontaminated soil
blotches in treated plants (Fusarium oxysporum): no blotches are found
growth of treated plants (Fusarium oxysporum): favorably grow at a level equivalent to that of plants that grow have in noncontaminated soil
growth of treated plants (Gaeumannomyces graminis): favorably grow at a level equivalent to that of plants that grow from noncontaminated seeds

O=C(NCc1cccc(Oc2ccccc2F)c1)c1ccc2ncccc2c1 [Compound 78]
growth of treated plants (Gibberella fujikuroi): favorably grow at a level equivalent to that of plants that have grown from noncontaminated unhulled rice
infected areas of treated plants relative to infected areas of untreated plants (Sclerotinia sclerotiorum): ≤ 10%
blotches in treated plants [1]: no blotches are found
growth of treated plants [1]: favorably grow at a level equivalent to that of plants that grow in noncontaminated soil
blotches in treated plants (Fusarium oxysporum): no blotches are found
growth of treated plants (Fusarium oxysporum): favorably grow at a level equivalent to that of plants that grow have in noncontaminated soil
growth of treated plants (Gaeumannomyces graminis): favorably grow at a level equivalent to that of plants that grow from noncontaminated seeds

O=C(NCc1ccc(Oc2cccc(F)c2)cc1)c1ccc2ncccc2c1 [Compound 79]
growth of treated plants (Gibberella fujikuroi): favorably grow at a level equivalent to that of plants that have grown from noncontaminated unhulled rice
infected areas of treated plants relative to infected areas of untreated plants (Sclerotinia sclerotiorum): ≤ 10%
blotches in treated plants [1]: no blotches are found
growth of treated plants [1]: favorably grow at a level equivalent to that of plants that grow in noncontaminated soil
blotches in treated plants (Fusarium oxysporum): no blotches are found
growth of treated plants (Fusarium oxysporum): favorably grow at a level equivalent to that of plants that grow have in noncontaminated soil
growth of treated plants (Gaeumannomyces graminis): favorably grow at a level equivalent to that of plants that grow from noncontaminated seeds

O=C(NCc1ccc(Oc2ccccc2)cc1F)c1ccc2ncccc2c1 [Compound 80]
growth of treated plants (Gibberella fujikuroi): favorably grow at a level equivalent to that of plants that have grown from noncontaminated unhulled rice
infected areas of treated plants relative to infected areas of untreated plants (Sclerotinia sclerotiorum): ≤ 10%
blotches in treated plants [1]: no blotches are found
growth of treated plants [1]: favorably grow at a level equivalent to that of plants that grow in noncontaminated soil
blotches in treated plants (Fusarium oxysporum): no blotches are found
growth of treated plants (Fusarium oxysporum): favorably grow at a level equivalent to that of plants that grow have in noncontaminated soil
growth of treated plants (Gaeumannomyces graminis): favorably grow at a level equivalent to that of plants that grow from noncontaminated seeds

O=C(NCc1cccc(CCc2ccccc2)c1)c1ccc2ncccc2c1 [Compound 82]
growth of treated plants (Gibberella fujikuroi): favorably grow at a level equivalent to that of plants that have grown from noncontaminated unhulled rice
infected areas of treated plants relative to infected areas of untreated plants (Sclerotinia sclerotiorum): ≤ 10%
blotches in treated plants [1]: no blotches are found
growth of treated plants [1]: favorably grow at a level equivalent to that of plants that grow in noncontaminated soil
blotches in treated plants (Fusarium oxysporum): no blotches are found
growth of treated plants (Fusarium oxysporum): favorably grow at a level equivalent to that of plants that grow have in noncontaminated soil
growth of treated plants (Gaeumannomyces graminis): favorably grow at a level equivalent to that of plants that grow from noncontaminated seeds
